Laboratory results reported in paper doi:10.1101/2023.04.19.537577.
These are yes or no findings as the source states them, for the method shown. For some assays here: In cells and extracts the contact can be indirect. Some binding calls cover weakened binding; strength is not graded here. Where a sequence is shown, tags or fusion partners need not be part of it.

Amino acid sequences for entries named in this document (tags omitted).
UniProt P50552: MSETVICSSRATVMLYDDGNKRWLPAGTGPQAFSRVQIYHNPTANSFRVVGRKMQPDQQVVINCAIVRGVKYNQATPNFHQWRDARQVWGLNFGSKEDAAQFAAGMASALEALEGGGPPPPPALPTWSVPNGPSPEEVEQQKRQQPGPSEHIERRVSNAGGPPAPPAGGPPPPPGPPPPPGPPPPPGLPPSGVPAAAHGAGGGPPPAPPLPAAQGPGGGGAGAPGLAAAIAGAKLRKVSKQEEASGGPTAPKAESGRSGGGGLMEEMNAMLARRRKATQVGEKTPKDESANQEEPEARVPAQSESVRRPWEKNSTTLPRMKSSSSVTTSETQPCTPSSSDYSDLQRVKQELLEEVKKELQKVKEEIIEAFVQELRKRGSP

T1: GST-PP1R6 (UniProt O95685)
T1 sequence: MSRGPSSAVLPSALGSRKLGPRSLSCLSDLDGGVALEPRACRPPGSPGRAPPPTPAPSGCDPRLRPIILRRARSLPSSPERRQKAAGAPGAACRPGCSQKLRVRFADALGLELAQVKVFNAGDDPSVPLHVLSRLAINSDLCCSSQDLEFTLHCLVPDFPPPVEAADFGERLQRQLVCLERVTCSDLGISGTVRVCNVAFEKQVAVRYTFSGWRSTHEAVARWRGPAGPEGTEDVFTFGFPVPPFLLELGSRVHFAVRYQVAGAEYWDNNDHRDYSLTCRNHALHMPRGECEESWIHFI


Assays:
[1] = target: T1, GST-PP1R6; assay: pull-down
[2] = target: His6-tagged VASP (vasodilator-stimulated phosphoprotein), expressed in HEK cells (UniProt P50552); assay: co-IP

Molecule	binding [1]	binding [2]
purified His6-VASP (recombinant VASP) (from UniProt P50552 1-380)	binds	
human flag-tagged PP1R6 (protein phosphatase 1 regulatory subunit 6) (protein, UniProt O95685 1-299) MSRGPSSAVLPSALGSRKLGPRSLSCLSDLDGGVALEPRACRPPGSPGRAPPPTPAPSGCDPRLRPIILRRARSLPSSPERRQKAAGAPGAACRPGCSQKLRVRFADALGLELAQVKVFNAGDDPSVPLHVLSRLAINSDLCCSSQDLEFTLHCLVPDFPPPVEAADFGERLQRQLVCLERVTCSDLGISGTVRVCNVAFEKQVAVRYTFSGWRSTHEAVARWRGPAGPEGTEDVFTFGFPVPPFLLELGSRVHFAVRYQVAGAEYWDNNDHRDYSLTCRNHALHMPRGECEESWIHFI		binds
